Publication doi:10.1101/2020.07.04.187922
The exact form of at least one protein or probe is not confirmed. At least one verdict was read from the data and is not stated in words by the source.

Assays:
Experiment in all cases: EMSA
[1] = test system: GST-NtERF16 (Nicotiana tabacum)
[2] = test system: GST-NtERF29 (Nicotiana tabacum)
[3] = test system: GST-NtERF199 (Nicotiana tabacum)
[4] = test system: GST-NtERF130 (Nicotiana tabacum)

Measured: binding result

CTCTATTATATCGAGTTGCGCCCTCCACTCCTCGGTGTC (double strand) [NtPMT2 probe]
binds: all assays above

GTTTGTAAGCACTCCAGCCATGTTAATGGAGTGC (double strand) [NtQPT2 probe]
binds: all assays above
